Data from paper PMC3513319, “The Importance of the Interaction of CheD with CheC and the Chemoreceptors Compared to Its Enzymatic Activity during Chemotaxis in Bacillus subtilis” (PLoS ONE, 2012).

The chains behind the UniProt entries cited, without tags or fusion partners. Where a name states a change or a piece, a line headed by the entry shows the natural chain unless it says otherwise.
UniProt P39214: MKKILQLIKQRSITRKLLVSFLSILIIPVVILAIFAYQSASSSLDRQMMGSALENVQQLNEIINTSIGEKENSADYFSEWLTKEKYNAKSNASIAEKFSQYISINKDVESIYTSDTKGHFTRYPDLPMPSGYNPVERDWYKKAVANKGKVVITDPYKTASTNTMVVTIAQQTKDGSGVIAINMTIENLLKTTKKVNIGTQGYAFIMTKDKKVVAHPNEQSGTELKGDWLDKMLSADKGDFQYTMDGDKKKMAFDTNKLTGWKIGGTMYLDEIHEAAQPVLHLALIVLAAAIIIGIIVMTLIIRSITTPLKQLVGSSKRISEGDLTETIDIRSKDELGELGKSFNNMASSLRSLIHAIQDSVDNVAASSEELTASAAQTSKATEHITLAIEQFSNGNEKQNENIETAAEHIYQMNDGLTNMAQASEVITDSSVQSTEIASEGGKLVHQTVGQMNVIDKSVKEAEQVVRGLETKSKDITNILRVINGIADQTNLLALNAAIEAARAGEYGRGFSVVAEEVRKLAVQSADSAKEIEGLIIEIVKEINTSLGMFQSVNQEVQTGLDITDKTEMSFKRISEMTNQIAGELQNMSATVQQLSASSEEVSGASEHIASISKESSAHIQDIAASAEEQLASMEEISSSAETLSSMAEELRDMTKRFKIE

Target: T1, glutathione-S-transferase-CheD (GST-CheD) (Bacillus subtilis) (UniProt P40404)
T1 sequence: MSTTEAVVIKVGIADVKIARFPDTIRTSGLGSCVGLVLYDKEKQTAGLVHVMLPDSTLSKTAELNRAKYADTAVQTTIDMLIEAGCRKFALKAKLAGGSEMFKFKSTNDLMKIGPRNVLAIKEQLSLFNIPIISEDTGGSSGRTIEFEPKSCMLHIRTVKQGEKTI
Assay: pull-down; 80 µM GST-CheD or GST-CheD-F102E on glutathione beads; 100 µM CheC or receptor fragment added for 10 min; washed with TBS + 1% Triton X-100; eluted with glutathione; SDS-PAGE, Coomassie stain, densitometry; both purified

- binding: binds
Substance: C-terminal fragment of McpA (McpAc) (from UniProt P39214) (domain or fragment)

These are yes or no findings as the source states them, for the method shown. Binding calls can cover weak binding; strength is not graded here. Where a sequence is shown, tags or fusion partners need not be part of it.
